The supplement of paper PMC12889115
Some of the results follow. Values are raw readings; no control value is given beside them.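 In the initial screen, polymyxin B was used at a concentration that permeabilizes Salmonella's outer membrane but not its inner membrane. Maximum growth was set by DMSO wells with or without polymyxin B. Since plates varied, data were ranked per plate, and compounds giving the lowest OD600 advanced as hits.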

System: Salmonella enterica serovar Typhimurium SL1344
Assay: bacterial growth OD600 after 18 h with compound and polymyxin B; higher = more bacterial growth (less inhibition)
Details: 50 µM, Mueller-Hinton broth

| SMILES | bacterial growth OD600 (polymyxin B 1 µg/mL) | bacterial growth OD600 (polymyxin B 0.75 µg/mL) |
| --- | --- | --- |
| COC(=O)CCCNC(=O)c1cc(OC)ccc1OC1CCN(C(=O)C2CC2)CC1 | 1.16 | – |
| COc1ccc(-c2cnnc(NCCSc3nccn3C)n2)cc1 | – | 0.782 |
| O=C(c1cccs1)N1CCC2(CCCN(Cc3cccnc3)C2=O)C1 (configuration not stated) | 0.891 | – |
| COc1ccc(CCN2CCCC(CN(C)Cc3csc(C(C)=O)c3)C2)cc1 (configuration not stated) | – | 0.842 |
| O=C(Cc1cc(F)cc(F)c1)NCCN1Cc2ccccc2OC(c2ccccc2)C1 (configuration not stated) | – | 0.048 |
| O=C(NCC1CCCN(C(=O)c2ccc3[nH]ccc3c2)C1)c1ccccc1Cl (configuration not stated) | 0.918 | – |
| CCc1cc(C(=O)N(CCN2CCCCC2)CC2CCCN(C3CCCC3)C2)n(C)n1 (configuration not stated) | 0.848 | – |
| Cc1nonc1CC(=O)N1CCC(CCC(=O)N(C)Cc2ccccc2)CC1 | 0.964 | – |
| COc1cccc(CC2(CO)CCCN(Cc3c[nH]nc3C3CCCCC3)C2)c1 (configuration not stated) | 0.782 | – |
| Cc1ccc(OCCN(C)C(=O)CCC2(Cc3ccc(Cl)cc3)CCC(=O)N2)cc1 (configuration not stated) | – | 0.812 |
| Cc1nc(N2CCC(NCc3cccc4[nH]ccc34)CC2)nc2ccc(F)cc12 | – | 0.821 |
| Cc1ccc(F)cc1CNC(=O)c1cc(NC(=O)C2CCCO2)c2c(c1)nc(C1CCC1)n2C (configuration not stated) | – | 0.798 |
| Cc1ncoc1C(=O)N1CCCC(CCc2ccccc2)C1 (configuration not stated) | – | 0.783 |
| CN(C(=O)c1n[nH]c(=O)c2ccccc12)C1CCCN(C2Cc3ccccc3C2)C1 (configuration not stated) | 1.23 | – |
| O=C1CCC(CCC(=O)N2CCCC2c2nc3ccccc3s2)(Cc2cccs2)N1 (configuration not stated) | – | 0.812 |
| CCN(CC)C(=O)C1CCCN(Cc2nc(-c3cccc(Cl)c3)no2)C1 (configuration not stated) | 1.01 | – |

Sorted by number of heavy atoms (high to low): some entries from above

| SMILES | bacterial growth OD600 (polymyxin B 1 µg/mL) | bacterial growth OD600 (polymyxin B 0.75 µg/mL) |
| --- | --- | --- |
| CCc1cc(C(=O)N(CCN2CCCCC2)CC2CCCN(C3CCCC3)C2)n(C)n1 (configuration not stated) | 0.848 | – |
| O=C(c1cccs1)N1CCC2(CCCN(Cc3cccnc3)C2=O)C1 (configuration not stated) | 0.891 | – |
| COc1ccc(-c2cnnc(NCCSc3nccn3C)n2)cc1 | – | 0.782 |

Further results:

| SMILES | bacterial growth OD600 (polymyxin B 1 µg/mL) | bacterial growth OD600 (polymyxin B 0.75 µg/mL) |
| --- | --- | --- |
| COCc1ccc(C(=O)Nc2ccc(-c3nc(CNC(=O)CCn4nccc4C)c(C)o3)cc2)o1 | – | 0.823 |
| COc1ccc2c(c1)OC(C)CN(CC(C)Cc1ccc3c(c1)OCO3)C2 (configuration not stated) | – | 0.007 |
| Cc1nc2ccccc2n1Cc1cc(C(=O)N2CCCC2)no1 | 0.842 | – |
| CCOc1ccc(CN2CCN(Cc3cccc4c3OCO4)CC2CCO)cc1 (configuration not stated) | 0.948 | – |
| O=C([C@@H]1C[C@@H]2C=C[C@H]1C2)N1CCc2onc(-c3ccccc3F)c2C1 | – | 0.669 |
| C=CCN(CC=C)C(=O)c1cc(NC(=O)CC2CCCC2)cc2nc(C3CCCO3)n(C)c12 (configuration not stated) | – | 0.85 |
| CC1CCCN(C(=O)c2cn(Cc3ccc(Cl)cc3)nn2)C1 (configuration not stated) | 1.1 | – |
| O=C(C[n+]1cc([O-])on1)NC1CCCc2c1cnn2-c1ccc(F)cc1F (configuration not stated) | 1.08 | – |
| CCC1CN(CCC(=O)NCCCn2ncc3ccccc32)Cc2cc(OC)ccc2O1 (configuration not stated) | – | 0.743 |
| COc1cccc(CCC2CCCN(C(=O)CCc3cccnc3)C2)c1 (configuration not stated) | – | 0.792 |
| Cc1ccc(CN2CCN(Cc3ccccc3F)C(CCO)C2)s1 (configuration not stated) | 1 | – |
| OCC1(Cc2ccccc2)CCCN(Cc2cccn2-c2ccc(Cl)cn2)C1 (configuration not stated) | 0.939 | – |
| COCC(=O)Nc1cc(C(=O)N2CCCC(c3ccccc3)CC2)cc2nc(-c3cccnc3)n(C)c12 (configuration not stated) | – | 0.825 |
| O=C(NCC1CCOCC1)c1ccc2oc(CCc3ccccc3)nc2c1 | 0.939 | – |
| COC(=O)c1c(S(=O)(=O)N2CCCC2)sc2c1CCN(C(=O)c1cc3ccccc3o1)C2 | – | 0.574 |
| COc1cccc(C(=O)N2CCCC(CCC(=O)N3CCN(Cc4ccccc4)CC3)C2)c1 (configuration not stated) | 0.95 | – |
